In assay [1] the target is OZ1-cYFP (Arabidopsis thaliana). As to the kind of experiment: split reporter; BiFC: nYFP (pSPYNE173) and cYFP (pSPYCE(M)) fusions co-transformed into Arabidopsis Col-0 mesophyll protoplasts, 16-20 h at 22 °C, confocal microscopy.
Assay [2] concerns the target OZ1-NLuc (Arabidopsis thaliana). The experiment in a line: split reporter; firefly luciferase complementation imaging (LCI): NLuc and CLuc fusions co-expressed in tobacco leaves by Agrobacterium infiltration with P19, 60 h, 1 mM D-luciferin.

These are yes or no findings as the source states them, for the method shown. Binding seen in cells or lysates may run through a third protein. Binding calls can cover weak binding; strength is not graded here. Tags and fused reporters may be left off the sequences shown.

B1: ATPC1-nYFP (ATPC1 fused to the N-terminal fragment of YFP) (protein, UniProt Q01908 51-373)
chain: ASLRELRDRIDSVKNTQKITEAMKLVAAAKVRRAQEAVVNGRPFSETLVEVLYNINEQLQTDDVDVPLTKVRPVKKVALVVVTGDRGLCGGFNNFIIKKAEARIKELKGLGLEYTVISVGKKGNSYFLRRPYIPVDKYLEAGTLPTAKEAQAVADDVFSLFISEEVDKVELLYTKFVSLVKSEPVIHTLLPLSPKGEICDINGTCVDAAEDEFFRLTTKEGKLTVERETFRTPTADFSPILQFEQDPVQILDALLPLYLNSQILRALQESLASELAARMSAMSSASDNASDLKKSLSMVYNRKRQAKITGEILEIVAGANAQV
Consider B1, for which the binding entry in assay [1] was “binds”.

B2: ATPC1-CLuc (ATPC1, C-terminal luciferase fragment fusion) (protein, UniProt Q01908 51-373)
chain: ASLRELRDRIDSVKNTQKITEAMKLVAAAKVRRAQEAVVNGRPFSETLVEVLYNINEQLQTDDVDVPLTKVRPVKKVALVVVTGDRGLCGGFNNFIIKKAEARIKELKGLGLEYTVISVGKKGNSYFLRRPYIPVDKYLEAGTLPTAKEAQAVADDVFSLFISEEVDKVELLYTKFVSLVKSEPVIHTLLPLSPKGEICDINGTCVDAAEDEFFRLTTKEGKLTVERETFRTPTADFSPILQFEQDPVQILDALLPLYLNSQILRALQESLASELAARMSAMSSASDNASDLKKSLSMVYNRKRQAKITGEILEIVAGANAQV
Consider B2, for which the binding result in assay [2] is given as “binds”.

The values above are taken from paper PMC10253099.
